From article doi:10.1101/2024.10.27.620478
These are yes or no findings as the source states them, for the method shown. In cells and extracts the contact can be indirect. Binding calls can cover weak binding; strength is not graded here.

Target: HSP70 (human (endogenous in SH-SY5Y))
Test: co-IP

- binding: binds
B1: EVA1-C (protein, UniProt P58658 49-441)
chain: LTDFSGYLTKLLQNHTTYACDGDYLNLQCPRHSTISVQSAFYGQDYQMCSSQKPASQREDSLTCVAATTFQKVLDECQNQRACHLLVNSRVFGPDLCPGSSKYLLVSFKCQPNELKNKTVCEDQELKLHCHESKFLNIYSATYGRRTQERDICSSKAERLPPFDCLSYSALQVLSRRCYGKQRCKIIVNNHHFGSPCLPGVKKYLTVTYACVPKNILTAIDPAIANLKPSLKQKDGEYGINFDPSGSKVLRKDGILVSNSLAAFAYIRAHPERAALLFVSSVCIGLALTLCALVIRESCAKDFRDLQLGREQLVPGSDKVEEDSEDEEEEEDPSESDFPGELSGFCRTSYPIYSSIEAAELAERIERREQIIQEIWMNSGLDTSLPRNMGQFY
